According to PubChem BioAssay (EPA / NIEHS):
Several values for one entry are separate records, joined by “and”; a condition that tells them apart may be missing. Equal values may be shown once. The shares of active, inactive and inconclusive entries below differ from those in the screen. For some assays here: Where the call is inconclusive, the potency comes from a doubtful curve fit. Some compounds were tested as several samples or in several runs, with calls that do not always agree. Activity calls are given as the source filed them. Rule for the calls: active = hit-call score of the fitted dose curve at least 0.9, where 1 is the maximum; inconclusive = response in the unintended direction; inactive = score below 0.9.

Sequences of proteins named here, by UniProt entry; tags and fusion partners are left off. A change or cut given only in a name is not applied to a line headed by its entry.
UniProt P19793: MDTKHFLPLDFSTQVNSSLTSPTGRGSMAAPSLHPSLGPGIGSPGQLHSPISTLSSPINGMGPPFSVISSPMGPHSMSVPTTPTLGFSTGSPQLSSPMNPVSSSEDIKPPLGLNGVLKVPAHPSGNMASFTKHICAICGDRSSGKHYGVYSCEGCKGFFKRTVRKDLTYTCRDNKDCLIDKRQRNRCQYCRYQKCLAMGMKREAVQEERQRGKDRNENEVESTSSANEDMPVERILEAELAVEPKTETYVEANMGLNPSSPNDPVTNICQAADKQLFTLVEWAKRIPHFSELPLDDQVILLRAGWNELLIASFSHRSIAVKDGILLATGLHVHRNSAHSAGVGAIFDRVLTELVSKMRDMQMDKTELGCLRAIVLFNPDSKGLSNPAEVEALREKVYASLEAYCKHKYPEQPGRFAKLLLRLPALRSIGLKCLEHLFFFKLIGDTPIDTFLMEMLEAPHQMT
UniProt P04637, whole entry, looked up: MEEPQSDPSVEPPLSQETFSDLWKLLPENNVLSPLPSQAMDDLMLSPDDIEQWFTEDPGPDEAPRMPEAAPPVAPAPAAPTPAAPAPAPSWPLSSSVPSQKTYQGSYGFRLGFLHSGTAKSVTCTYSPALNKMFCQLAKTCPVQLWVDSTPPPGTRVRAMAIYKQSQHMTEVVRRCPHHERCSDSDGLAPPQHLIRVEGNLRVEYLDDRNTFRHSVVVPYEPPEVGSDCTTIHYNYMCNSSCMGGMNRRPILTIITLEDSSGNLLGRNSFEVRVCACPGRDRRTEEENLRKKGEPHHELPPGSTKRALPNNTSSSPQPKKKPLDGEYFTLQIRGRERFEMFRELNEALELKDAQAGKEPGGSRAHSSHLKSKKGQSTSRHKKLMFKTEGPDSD
UniProt Q96RI1: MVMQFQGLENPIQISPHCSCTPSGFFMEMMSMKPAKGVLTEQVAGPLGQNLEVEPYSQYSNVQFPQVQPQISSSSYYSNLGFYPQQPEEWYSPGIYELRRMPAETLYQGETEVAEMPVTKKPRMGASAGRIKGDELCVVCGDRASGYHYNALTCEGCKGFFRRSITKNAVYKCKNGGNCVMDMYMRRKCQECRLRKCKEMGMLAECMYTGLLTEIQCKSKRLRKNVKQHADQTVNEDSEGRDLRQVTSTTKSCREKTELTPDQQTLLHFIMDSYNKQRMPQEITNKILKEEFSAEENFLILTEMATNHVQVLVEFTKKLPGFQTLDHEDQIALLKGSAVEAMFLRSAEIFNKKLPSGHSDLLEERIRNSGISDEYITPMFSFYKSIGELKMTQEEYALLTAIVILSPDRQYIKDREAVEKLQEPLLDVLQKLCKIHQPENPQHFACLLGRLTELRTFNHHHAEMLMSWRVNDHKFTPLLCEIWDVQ
UniProt P37231: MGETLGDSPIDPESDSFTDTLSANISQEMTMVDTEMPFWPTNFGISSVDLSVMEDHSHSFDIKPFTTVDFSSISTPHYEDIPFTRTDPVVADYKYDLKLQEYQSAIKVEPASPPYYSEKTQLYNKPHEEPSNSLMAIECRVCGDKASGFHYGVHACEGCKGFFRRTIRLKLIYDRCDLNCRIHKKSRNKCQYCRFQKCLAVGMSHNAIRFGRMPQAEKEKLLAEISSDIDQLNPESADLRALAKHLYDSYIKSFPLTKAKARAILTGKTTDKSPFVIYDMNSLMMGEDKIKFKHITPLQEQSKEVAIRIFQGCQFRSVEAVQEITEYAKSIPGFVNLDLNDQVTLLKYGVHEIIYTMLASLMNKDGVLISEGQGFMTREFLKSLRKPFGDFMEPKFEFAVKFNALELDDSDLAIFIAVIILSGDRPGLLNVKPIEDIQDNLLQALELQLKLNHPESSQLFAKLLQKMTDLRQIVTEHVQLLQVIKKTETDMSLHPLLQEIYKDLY

Assays:
[1] = target: Retinoic acid receptor RXR-alpha (Homo sapiens) (UniProt P19793); experiment: OT_NURR1_NURR1RXRa_0480: Odyssey Thera (OT) 8-hour HEK293T Protein Complementation Assay for Nurr1/retinoid X receptor (RXR) (AID 2283385)
Outline: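 HEK293T cells expressing Nurr1 and RXRα fused to reporter fragments (protein-fragment complementation); fluorescence measured 8 h after dosing. Gain of signal fitted relative to DMSO.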

[2] = target: Retinoic acid receptor RXR-alpha (Homo sapiens) (UniProt P19793); experiment: OT_NURR1_NURR1RXRa_1440: Odyssey Thera (OT) 24-hour HEK293T Protein Complementation Assay for Nurr1/retinoid X receptor (RXR) (AID 2283386)
Outline: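 HEK293T protein-fragment complementation of Nurr1 and RXRα fused to reporter fragments; compounds 24 h. Fluorescence gain from reconstituted reporter fitted versus DMSO.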

[3] = TOX21_p53_BLA_p2_viability: Viability Assessment in the Tox21 HCT-116 p53 Agonism Beta-lactamase Assay, Phase 2 (AID 2283591);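 note: compound exposure lasted 16 h at 37 °C; actives lower the ATP signal meaning cytotoxicity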
Outline: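 HCT-116 p53-bla cells (4000/well) rested 5 h at 37C, then received compounds in DMSO (217-fold dilution) for 16 h at 37C, 5% CO2. After the CCF4 read, CellTiter-Glo was added; ATP luminescence was read after 30 min at room temperature.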

[4] = target: Cellular tumor antigen p53 (Homo sapiens) (UniProt P04637); experiment: TOX21_p53_BLA_p2_ratio: Tox21 HCT-116 p53 Agonism Beta-lactamase Assay, Ratio, Phase 2 (AID 2283592)
Outline: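 In this cell-based reporter format, HCT116 cells were dosed with chemicals delivered from DMSO by 217-fold dilution and incubated 16 h at 37C. Emission at 460 and 530 nm after 2 h CCF4-AM loading provided the ratio, fitted upward versus DMSO.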

[5] = TOX21_p53_BLA_p3_viability: Viability Assessment in the Tox21 HCT-116 p53 Agonism Beta-lactamase Assay, Phase 3 (AID 2283593);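 note: cells exposed to compound for 16 h before reading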
Outline: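 HCT-116 cells (4000/well) rested 5 h at 37C, then got DMSO compounds by pin tool (217-fold dilution) for 16 h at 37C, 5% CO2. After the bla read, CellTiter-Glo was added and luminescence read at 30 min, room temperature.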

[6] = target: Cellular tumor antigen p53 (Homo sapiens) (UniProt P04637); experiment: TOX21_p53_BLA_p3_ratio: Tox21 HCT-116 p53 Agonism Beta-lactamase Assay, Ratio, Phase 3 (AID 2283596)
Outline: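 HCT116 p53-bla cells (4000/well) given compound in DMSO (217-fold dilution) after 5 h, incubated 16 h at 37C. CCF4-AM substrate 2 h at room temperature; 460/530 nm emission ratio, gain fitted against DMSO.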

[7] = TOX21_p53_BLA_p5_viability: Viability Assessment in the Tox21 HCT-116 p53 Agonism Beta-lactamase Assay, Phase 5 (AID 2283600)
Outline: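 Compounds, pinned from DMSO at 217-fold dilution, were left on the cells for 16 h. The viability endpoint was ATP content measured by CellTiter-Glo luminescence, where falling signal reflects cytotoxicity.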

[8] = target: Cellular tumor antigen p53 (Homo sapiens) (UniProt P04637); experiment: TOX21_p53_BLA_p4_ratio: Tox21 HCT-116 p53 Agonism Beta-lactamase Assay, Ratio, Phase 4 (AID 2283601)
Outline: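 HCT116 cells carrying an inducible beta-lactamase reporter were plated at 4000 cells/well, rested 5 h, then exposed to compounds in DMSO (217-fold dilution) for 16 h at 37C. CCF4-AM substrate was loaded 2 h at room temperature; 460/530 nm emission ratio scored gain-of-signal versus DMSO.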

[9] = target: Bile acid receptor (Homo sapiens) (UniProt Q96RI1); experiment: OT_FXR_FXRSRC1_1440: Odyssey Thera (OT) 24-hour HEK293T Protein-Complementation Assay for Farnesoid X receptor/SRC-1 Co-activator (AID 2283384)
Outline: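 HEK293T cells, 24 h after chemical dosing. FXR–SRC-1 coactivator interaction read as fluorescence from protein-fragment complementation of a split reporter. Gain of signal fitted against DMSO baseline.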

[10] = TOX21_p53_BLA_p4_viability: Viability Assessment in the Tox21 HCT-116 p53 Agonism Beta-lactamase Assay, Phase 4 (AID 2283597);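 note: hits lower the luminescence signal meaning cytotoxicity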
Outline: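 We seeded HCT116 p53 reporter cells at 4000/well and waited 5 h. We then added compounds in DMSO at a 217-fold dilution and incubated for 16 h. Viability was read as CellTiter-Glo luminescence after 30 min at RT.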

[11] = target: Cellular tumor antigen p53 (Homo sapiens) (UniProt P04637); experiment: TOX21_p53_BLA_p5_ratio: Tox21 HCT-116 p53 Agonism Beta-lactamase Assay, Ratio, Phase 5 (AID 2283599)
Outline: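 HCT-116 cells carrying a p53-inducible beta-lactamase reporter were seeded at 4000 cells/well and dosed after 5 h with compound in DMSO (217-fold dilution). After 16 h at 37C, CCF4-AM substrate was added for 2 h, and the 460/530 nm emission ratio was scored as gain-of-signal versus DMSO.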

[12] = target: Peroxisome proliferator-activated receptor gamma (Homo sapiens) (UniProt P37231); experiment: OT_PPARg_PPARgSRC1_0480: Odyssey Thera (OT) 8-hour Protein-Complementation Assay for Peroxisome Proliferator-activated Receptor Gamma / SRC-1 Co-activator (AID 2283387);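 note: nuclear to cytoplasmic split Venus YFP fluorescence ratio reporting PPARg SRC-1 interaction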
Outline: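 Read-out: 488 nm N/C fluorescence ratio from complemented Venus YFP fragments, ≥350 cells per image, gain-of-signal fitted against DMSO baseline. Fusions of PPARg/SRC-1 with IFP1/IFP2 expressed transiently in HEK293T; compounds applied 8 h.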

[13] = LTEA_HepaRG_LDH_cytotoxicity: Cytotoxicity Assessment in the Life Technologies and Expression Analysis (LTEA) Assay (AID 2283563)
Outline: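 HepaRG (human liver line), 48 h exposure, 8-pt half-log series from 100 uM, 0.5% DMSO vehicle, duplicates. Read-out: LDH in spent medium. Positive-direction fit vs DMSO baseline.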

[14] = ATG_XTT_Cytotoxicity: Cytotoxicity Assessment in the Attagene TRANS-FACTORIAL HepG2 Assay (AID 2283584);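 for AC50: cells exposed to compound for 24 h before reading; active means loss of viability signal versus DMSO baseline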
Outline: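 XTT readout of cell number in transfected HepG2 cells, 24 h post-dosing; DMSO serves as negative control and baseline, with activity taken as loss of viability signal.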

[15] = Tanguay_ZF_120hpf_MORT_legacy: (Legacy) Oregon State University Tanguay Lab 120 Hour Post-fertilization zebrafish Assay for Mortality (AID 2283633);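 note: fitted as increase in binary mortality versus DMSO negative control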
Outline: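 Brightfield scoring of embryo death (binary) at 24 and 120 hpf; static exposure 6–120 hpf, 28C, sealed and foil-covered. Pronase-dechorionated 5D wild-type larvae, single embryo per well. DMSO 0.64% v/v; trimethyltin chloride 5uM positive control.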

Measured: AC50

Oc1ccccc1-c1ccccc1
inactive: [1] | [2] | [4]
inconclusive: [1] 19.7 µM | [3] 46.1 µM and 47 µM and 23 µM | [5] 46.1 µM and 554 nM | [6] 47 µM | [7] 23 µM | [8] 23 µM

COC(=O)C=C(C)OP(=O)(OC)OC
inactive: [9] | [11] | [7]
inconclusive: [3] 13.5 µM | [5] 46.1 µM | [6] 46.1 µM | [10] 46.1 µM

CC(C)(C)c1ccc(CSc2cnn(C(C)(C)C)c(=O)c2Cl)cc1
inconclusive: [2] 0.11 µM | [12] 50 µM | [10] 46.1 µM
inactive: [9] | [3] | [7]

COP(=O)(OC)SCn1c(=O)oc2cc(Cl)cnc21
inconclusive: [1] 18.2 µM | [2] 50 µM and 26.3 µM | [3] 2.09e-05 µM | [5] 0.699 µM
active: [11] 73.7 µM
inactive: [1] | [4] | [10]

CC(C)OC(=O)Nc1cccc(Cl)c1
inconclusive: [2] 9.18 µM and 14.7 µM | [3] 46.1 µM and 45.5 µM | [10] 46.1 µM | [7] 46.1 µM and 19.9 µM
inactive: [9] | [8]

CNC(=O)N(C)c1nnc(C(C)(C)C)s1
inconclusive: [1] 3.06 µM | [3] 1.73 µM | [5] 46.1 µM | [6] 46.1 µM | [7] 46.1 µM
inactive: [1] | [4] | [10]

COC(=O)c1c(C(F)F)nc(C(F)(F)F)c(C2=NCCS2)c1CC(C)C
inactive: [1] | [7]
inconclusive: [1] 50 µM | [2] 50 µM | [3] 46.1 µM | [5] 46.1 µM

O=C(O)C(F)(F)C(F)(F)C(F)(F)C(F)(F)C(F)(F)F
inconclusive: [1] 0.155 µM | [2] 2.15 µM | [3] 46.1 µM | [10] 14.2 µM | [7] 46.1 µM
inactive: [1]

CCNc1nc(Cl)nc(NCC)n1
inactive: [9] | [12] | [3] | [10] | [8]
inconclusive: [3] 21.1 µM and 80.2 µM | [4] 45.9 µM and 46.3 µM | [6] 45.9 µM | [10] 45.9 µM and 46.3 µM | [11] 45.9 µM and 23 µM | [7] 45.9 µM and 153 nM

Cn1c(-c2ccccc2)cc(-c2ccccc2)[n+]1C
active: [4] 24.2 µM
inactive: [1] | [3] | [4] | [5] | [10]
inconclusive: [1] 50 µM | [5] 0.0203 µM | [7] 81.1 µM

Clc1ccc(Cl)c(Cl)c1
inactive: [1] | [13] | [3]
inconclusive: [1] 1.07 µM | [2] 50 µM | [5] 6.24 µM | [6] 45.1 µM | [10] 46.1 µM and 77.6 µM | [11] 46.1 µM | [7] 81.3 µM | [8] 45.1 µM

CC(C)OC(=O)Nc1ccccc1
inactive: [1] | [14] | [3] | [8]
inconclusive: [2] 50 µM | [3] 46.2 µM | [10] 46.1 µM and 46.2 µM | [7] 46.1 µM and 46.2 µM | [8] 46.2 µM

CC[C@H](C)[C@H]1O[C@]2(C=C[C@@H]1C)C[C@@H]1C[C@@H](C/C=C(\C)[C@@H](O[C@H]3C[C@H](OC)[C@@H](O[C@H]4C[C@H](OC)[C@@H](O)[C@H](C)O4)[C@H](C)O3)[C@@H](C)/C=C/C=C3\CO[C@@H]4[C@H](O)C(C)=C[C@@H](C(=O)O1)[C@]34O)O2 (tested in a mixture with another compound)
active: [1] 7.4 µM | [2] 9.87 µM | [3] 9.13 µM and 43.5 µM | [4] 17.6 µM | [5] 15.9 µM | [10] 6.67 µM and 35.5 µM | [11] 31.4 µM | [7] 7.91 µM and 42.1 µM | [15] 13.9 µM
inactive: [2]

Sc1ccccc1
inconclusive: [1] 50 µM | [2] 50 µM

O=C(O)C(F)(F)C(F)(F)C(F)(F)C(F)(F)C(F)(F)C(F)(F)F
inactive: [2] | [10]
inconclusive: [1] 2.44 µM | [2] 50 µM | [3] 46.1 µM | [4] 46.1 µM | [6] 84.1 µM | [7] 46.1 µM | [8] 46.1 µM

CC(Cc1ccc(OCC(=O)O)cc1)NCC(O)c1csc(C(F)(F)F)n1 (centres undefined)
inactive: [1]
inconclusive: [1] 50 µM | [3] 86.6 µM | [10] 76.6 µM | [7] 46.1 µM

CC1(C)Cc2cccc(O)c2O1
inconclusive: [1] 50 µM | [2] 50 µM

CC(C)COC(=O)c1ccccc1C(=O)OCC(C)C
inactive: [1]
inconclusive: [2] 50 µM

ClC1=C(Cl)[C@]2(Cl)[C@H]3[C@H]([C@@H]4C=C[C@H]3C4)[C@@]1(Cl)C2(Cl)Cl
inconclusive: [1] 95.2 µM and 90.4 µM | [2] 50 µM and 82.5 µM | [12] 64.8 µM | [6] 46 µM | [10] 79.7 µM and 134 nM | [11] 46.1 µM | [8] 46 µM
active: [5] 46 µM

O=[N+]([O-])c1ccccc1
inactive: [2] | [12] | [5] | [11] | [7] | [8]
inconclusive: [1] 50 µM | [14] 26.7 µM | [3] 3.97 nM and 23 µM | [4] 46.1 µM | [5] 46.1 µM and 1.81 nM | [6] 46.1 µM | [10] 0.0269 µM | [11] 47.4 µM and 23 µM | [7] 46.1 µM and 47.4 µM | [8] 47.4 µM

Sorted by formula weight (rising): part of the list above
CC(C)COC(=O)c1ccccc1C(=O)OCC(C)C
inactive: [1]
inconclusive: [2] 50 µM

ClC1=C(Cl)[C@]2(Cl)[C@H]3[C@H]([C@@H]4C=C[C@H]3C4)[C@@]1(Cl)C2(Cl)Cl
inconclusive: [1] 95.2 µM and 90.4 µM | [2] 50 µM and 82.5 µM | [12] 64.8 µM | [6] 46 µM | [10] 79.7 µM and 134 nM | [11] 46.1 µM | [8] 46 µM
active: [5] 46 µM

CC(Cc1ccc(OCC(=O)O)cc1)NCC(O)c1csc(C(F)(F)F)n1 (centres undefined)
inactive: [1]
inconclusive: [1] 50 µM | [3] 86.6 µM | [10] 76.6 µM | [7] 46.1 µM

Going on with the list.

OCCCBr
inconclusive: [1] 50 µM | [2] 50 µM
inactive: [13] | [11] | [8]

ClC1=C(Cl)[C@]2(Cl)[C@@H]3[C@@H](Cl)[C@H]4O[C@H]4[C@@H]3C1(Cl)C2(Cl)Cl
active: [1] 79.6 µM | [2] 86 µM | [3] 76.7 µM | [10] 65.1 µM | [8] 72.3 µM
inactive: [14]

Cn1cc(-c2ccccc2)c(=O)c(-c2cccc(C(F)(F)F)c2)c1
inactive: [3] | [4]
inconclusive: [1] 50 µM | [2] 50 µM | [12] 50 µM | [3] 77 µM | [4] 68.5 µM | [10] 46.1 µM and 45.2 µM | [11] 45.2 µM | [7] 363 nM and 45.2 µM

CCCSP(=O)(OCC)SCCC
inconclusive: [1] 51.5 µM | [2] 51.5 µM
inactive: [2]

CC(C)Oc1cccc(NC(=O)c2ccccc2C(F)(F)F)c1
inactive: [1] | [6] | [7] | [8]
inconclusive: [1] 50 µM
